Laboratory results: US20110152333A1, “3-CYANOPYRROLIDINYL-PHENYL-OXAZOLIDINONES AS ANTIBACTERIAL AGENTS” (FERRER INTERNACIONAL, S.A., priority 2008, published 2011)
≈ marks a conversion by molar mass, not a printed value.

Experiments:
Assay in all cases: MIC, micro dilution (NCCLS M7-A5)
[1] = system: Moraxella catarrhalis HCI-78; assay type: cell-based; details: HCI78, Table 1, 5% CO2
H. influenzae ATCC49247 = assay type: cell-based, Haemophylus influenzae; details: Haemophilus influenzae, Table 1
S. aureus LNZ-R 432 = assay type: cell-based; details: Staphylococcus aureus, LNZR432, Table 1
[2] = system: S. pneumoniae ATCC49619 PR; assay type: cell-based; details: Streptococcus pneumoniae, Table 1, 5% CO2
E. faecium ATCC51559 MDR = assay type: cell-based; details: Enterococcus faecium, Table 1
[3] = system: B. fragilis sp. fragilis ATCC25285; assay type: cell-based; details: Bacteroides fragilis, Table 1, Brucella Blood medium for anaerobic strains
S. aureus ATCC25923 MS = assay type: cell-based; details: Staphylococcus aureus, Table 1
E. faecium LNZ-R LR-4 = assay type: cell-based; details: Enterococcus faecium, Table 1

CC(=O)NC[C@H]1CN(c2cc(F)c(N3CCC(C#N)C3)c(F)c2)C(=O)O1 (stereo partly drawn) [Ex. 2, N-{(5S)-3-[3,5-difluoro-4-(3-cyanopyrrolidin-1-yl)phenyl]-2-oxo-5-oxazolidinylmethyl}acetamide]
MIC [1]: 0.25 µg/mL (≈ 0.686 µM)
MIC (H. influenzae ATCC49247): 2 µg/mL (≈ 5.49 µM)
MIC (S. aureus LNZ-R 432): 64 µg/mL (≈ 176 µM)
MIC [2]: 0.125 µg/mL (≈ 0.343 µM)
MIC (E. faecium ATCC51559 MDR): 0.125 µg/mL (≈ 0.343 µM)
MIC [3]: 0.125 µg/mL (≈ 0.343 µM)
MIC (S. aureus ATCC25923 MS): 0.25 µg/mL (≈ 0.686 µM)
MIC (E. faecium LNZ-R LR-4): 4 µg/mL (≈ 11 µM)
